# In the antibiotic and cytotoxicity screens of Wong et al. (2023):
# This list holds what a sample rich in hits left over.
# How the values were obtained:
# HSkMC = human skeletal muscle cells; experiment: cytotoxicity call (relative viability < 0.9); settings: 10 µM
# HepG2 = experiment: cytotoxicity call (relative viability < 0.9); settings: 10 µM
structure (smiles),measurement,setting,value
Cc1c(C(=O)NN2CCCCC2)nn(-c2ccc(Cl)cc2Cl)c1-c1ccc(I)cc1,cytotoxicity call,HSkMC,inactive
same,cytotoxicity call,HepG2,inactive
